Source: patent publication US20210002725A1, “METHODS FOR THE DIAGNOSIS OF METABOLIC DISORDERS USING EPIMETABOLIC SHIFTERS, MULTIDIMENSIONAL INTRACELLULAR MOLECULES, OR ENVIRONMENTAL INFLUENCES” (Berg LLC, priority 2009, published 2021)

Tested on: SK-MEL-28 mitochondria
Test: LC-MS/MS quantification of Q10 and Q10H2 in mitochondrial enriched samples
Assay type: cell-based
Details: 100 μM Q10 in the media, 6 hr
Description: Ten μl of each sample was injected.

COC1=C(OC)C(=O)C(C/C=C(\C)CC/C=C(\C)CC/C=C(\C)CC/C=C(\C)CC/C=C(\C)CC/C=C(\C)CC/C=C(\C)CC/C=C(\C)CC/C=C(\C)CCC=C(C)C)=C(C)C1=O [Q10, Coenzyme Q10]
Q9 in mitochondrial enriched sample: 028 ng/Sample
